This note sets out measurements from the supplement of paper PMC11060735.

Where “and” joins values, the source holds several entries; their conditions need not be identical. Equal entries are not always repeated. Structures can show the parent of a compound that is named as a salt. ± gives the standard deviation of the averaged measurements. Over roughly 1,800 compounds, “GFP- (p16Ink4a-) cell count relative to negative-control wells” has its median near 0.99; the lowest 2% begin near 0.5. Some of the results follow.

The test system of this assay is mouse p16Ink4a+/- lung fibroblasts (INKBRITE, bleomycin-injured). Description: GFP- (p16Ink4a-) cell count relative to negative-control wells (fold of vehicle); higher = more p16Ink4a- cells surviving. The conditions noted are these: 1 µM; 3 days.
As to `O=C(O[C@H]1C[C@H]2CC[C@@H](C1)[N+]21CCCC1)C(O)(c1ccccc1)c1ccccc1` [Trospium], the GFP- worked out at 0.905.
Consider `O=C1C=CC[C@@H]2[C@H]3CCCN4CCC[C@@H](CN12)[C@@H]34` [Sophocarpine], for which the GFP- amounted to 1.13.
`COC[C@H]1OC(=O)c2coc3c2[C@@]1(C)C1=C(C3=O)[C@@H]2CCC(=O)[C@@]2(C)C[C@H]1OC(C)=O` [Wortmannin] displayed a GFP- of 1.07.
In turn, `CC[C@@]1(O)C(=O)OCc2c1cc1n(c2=O)Cc2cc3ccccc3nc2-1` [Camptothecin] displayed a GFP- of 0.7.
Then `C[C@@]12N[C@@H](Cc3ccccc31)c1ccccc12` [(-)-MK 801 Maleate], with 1.02; and `Cc1sc2c(c1C)C(c1ccc(Cl)cc1)=N[C@@H](CC(=O)Nc1ccc(O)cc1)c1nnc(C)n1-2`, with 0.844 ± 0.048.
`Cc1cccc(Cc2c[nH]cn2)c1C` [Detomidine HCl] gave a GFP- of 0.991.
Consider `CN(C)[C@@H]1C(=O)C(C(N)=O)=C(O)[C@@]2(O)C(O)=C3C(=O)c4c(O)cccc4[C@@](C)(O)[C@H]3[C@H](O)[C@@H]12` [Oxytetracycline], for which the GFP- was determined as 1.13.
Take `CN(C)CCc1ccc(O)cc1` [Hordenine]: the GFP- came out at 1.1.
Regarding `COC1=C[C@@H]2[C@@H]3Cc4ccc(OC)c(O)c4[C@]2(CCN3C)CC1=O` [Sinomenine], the GFP- is 1.08.
As for `CCC1(c2ccc(N)cc2)CCC(=O)NC1=O` (racemic) [(¬±)-p-aminoglutethimide, Aminoglutethimide], the GFP- stood at 1.
`CC1(C)CC(O)CC(C)(C)N1O` [Tempol] registered a GFP- of 1.05.
`O=C(O[C@H]1C[N+]2(CCCOc3ccccc3)CCC1CC2)C(O)(c1cccs1)c1cccs1` [Aclidinium] came in with a GFP- of 1.03.
Take `CN1c2ccccc2C(NCCCCCCC(=O)O)c2ccc(Cl)cc2S1(=O)=O` (stereo unspecified) [Tianeptine]: the GFP- is 1.04.
In the case of `C[C@H]1CNCCc2ccc(Cl)cc21` [Lorcaserin], the GFP- is 1.02.
Take `N#CC(C#N)=Cc1ccc(O)c(O)c1`: the GFP- turned out to be 1.13.
The result for `CC(C)(C)c1cc(C=C(C#N)C#N)cc(C(C)(C)C)c1O` [Tyrphostin A9] reads 0.845.
As for `CC(C)(C)c1cc(C=C(C#N)C#N)cc(Br)c1O`, the GFP- was found to be 0.552.
In the case of `CCCN1C[C@H](CSC)C[C@@H]2c3cccc4[nH]cc(c34)C[C@H]21` [Pergolide], the GFP- was 0.869.
`CN(C)[C@@H]1C(=O)C(C(N)=O)=C(O)[C@@]2(O)C(O)=C3C(=O)c4c(O)cccc4[C@@](C)(O)[C@H]3C[C@@H]12` [Tetracycline] returned a GFP- of 1.07.
`CC(NC(C)(C)C)C(=O)c1cccc(Cl)c1` (stereo unspecified) had a GFP- of 0.921.
The result for `C[C@]12CC(C=O)=C(O)C[C@@H]1CC[C@@H]1[C@H]2CC[C@@]2(C)[C@H]1CC[C@@]2(C)O` [Oxymetholone] reads 0.957; that for `CCNC(=O)C[C@@H]1N=C(c2ccc(Cl)cc2)c2cc(OC)ccc2-n2c(C)nnc21`, 1.04 ± 0.19; that for `c1cc2c(cc1[C@H]1OC[C@H]3[C@@H]1CO[C@@H]3c1ccc3c(c1)OCO3)OCO2` [Sesamin], 1.02.
In turn, `CN1CCN(c2nc3ccccc3nc2Cl)CC1` came in with a GFP- of 1.06.
The compound `Cn1c(CCCC(=O)O)nc2cc(N(CCCl)CCCl)ccc21` [Bendamustine] returned a GFP- of 0.945.
`Cc1cccc(C)c1NC(=O)CN1CCCC1=O` [Nefiracetam]: the GFP- was found to be 0.97.
Consider `CC(C)NCC(O)c1ccccc1Cl` (stereo unspecified) [Clorprenaline], for which the GFP- is 1.02.
The compound `CCOC(=O)c1cncn1C(C)c1ccccc1` (stereo unspecified) [Etomidate] gave a GFP- of 1.09.
The compound `O=C(NCC1CCOCC1)c1cnc(Nc2ccc(Cl)cc2Cl)nc1C(F)(F)F` showed a GFP- of 1.07.
Compound `CN(C)C(=O)Oc1ccc[n+](C)c1` [Pyridostigmine] displayed a GFP- of 0.948.
Turning to `O=[N+]([O-])c1ncc[nH]1` [Azomycin], the GFP- worked out at 0.973.
In turn, `O=C(O)CNC(=O)c1c(O)c2ccccc2n(Cc2ccccc2)c1=O` returned a GFP- of 1.07 ± 0.046.
Then `N#C[C@H](O[C@@H]1O[C@H](CO[C@@H]2O[C@H](CO)[C@@H](O)[C@H](O)[C@H]2O)[C@@H](O)[C@H](O)[C@H]1O)c1ccccc1` [Amygdalin(d)], with 1.01; and `CO[C@H]1CCC(O[C@H]2C[C@H]([C@]3(C)CC[C@]4(C[C@H](O)[C@@H](C)[C@@H]([C@@H](C)/C=C(\C)C(=O)[C@H](C)C[C@H](C)C(=O)O)O4)O3)O[C@]3(O[C@@H]([C@H]4O[C@@](O)(CO)[C@H](C)C[C@@H]4C)C[C@@H]3C)[C@@H]2C)O[C@@H]1C` (stereo partly specified) [Nanchangmycin], with 0.412.
In turn, `OC(c1ccccc1)(c1ccccc1)C1CCNCC1` [Azacyclonol] gave a GFP- of 0.849.
As to `Fc1cc(F)c2c(c1)[C@H]1C=CC[C@H]1C(c1cccnc1)N2` (stereo partly specified) [Golgicide A], the GFP- is 1.02.
The result for `CN1[C@@H]2C[C@@H](OC(=O)[C@H](CO)c3ccccc3)C[C@H]1[C@@H]1O[C@@H]12` [Scopolamine] reads 0.984; that for `CNCC(O)c1ccc(O)cc1` (stereo unspecified) [Synephrine], 0.99 and 0.934; that for `O=[N+]([O-])/C=C/c1ccc2c(c1)OCO2`, 1.03.
Then `CN1C(=O)CCS(=O)(=O)C1c1ccc(Cl)cc1` (stereo unspecified) [Chlomezanone, Chlormezanone], with 1.03.
The result for `C[C@@H]1CC[C@H]2[C@@H](C)C(=O)O[C@@H]3O[C@@]4(C)CC[C@@H]1[C@]32OO4` [Artemisinin] reads 0.865; that for `CC(=O)O[C@H]1C[C@@H]2CC[C@@H]3[C@H](CC[C@@]4(C)[C@H]3C[C@H]([N+]3(C)CCCCC3)[C@@H]4OC(C)=O)[C@@]2(C)C[C@@H]1[N+]1(C)CCCCC1` [Pancuronium], 1.02.
In the case of `CCCCCCCCCCCCCCCC[n+]1ccccc1` [Cetylpyridinium Bromide], the GFP- is 0.866.
The result for `c1ccc2c(c1)Nc1ccccc1S2` [Phenothiazine] reads 1.1; that for `CC[C@H]1/C=C\C=C/C[C@@H](C)[C@H](O)[C@@](C)(O)C(=O)[C@@H](C)[C@H](O)[C@@H](C)C(=O)[C@@H](C)[C@H](O)[C@@H](C)/C=C/C(=O)O[C@@H]2C(C)[C@H](CC1)O[C@]1(CC[C@H](C)[C@H](C[C@@H](C)O)O1)[C@H]2C` (stereo partly specified) [Oligomycin A], 0.887; that for `C[C@H]1CCC/C=C/[C@@H]2C[C@H](O)C[C@H]2[C@H](O)/C=C/C(=O)O1` [Brefeldin A], 0.4.
`CCCN1CCO[C@H]2c3cc(O)ccc3OC[C@@H]21`: the GFP- came out at 1.04.
The result for `C[C@]12CCC(=O)C(O)=C1CC[C@@H]1[C@@H]2CC[C@]2(C)C(=O)CC[C@@H]12` [Formestane] reads 1.08; that for `CCN1C[C@]2(OC(=O)c3ccccc3NC(C)=O)CC[C@H](OC)[C@]34C1[C@H](C[C@H]23)[C@@]1(O)C[C@H](OC)[C@H]2C[C@@H]4[C@]1(O)[C@H]2OC` [Lappaconite HBr], 0.936.
`C#C[C@]1(O)C=C[C@H]2[C@@H]3CCC4=CC(=O)CC[C@@H]4[C@H]3CC[C@@]21CC` [Gestodene] yielded a GFP- of 1.08.
The result for `C[C@]12N[C@H](Cc3ccccc31)c1ccccc12` [(+)-mk-801 Hydrogen Maleate] reads 1.17; that for `CC[C@@H]1[C@@H](C)O[C@@](O)([C@@H](C)[C@H](O)[C@H](C)[C@H]2OC(=O)/C=C/C=C/[C@H](C)[C@H]([C@@H](C)[C@@H](O)[C@H](C)[C@@]3(O)C[C@@H](O[C@H]4C[C@H](O)[C@H](O)[C@H](C)O4)[C@H](CC)[C@@H](C)O3)OC(=O)/C=C/C=C/[C@H]2C)C[C@H]1O[C@H]1C[C@H](O)[C@H](O)[C@H](C)O1` [Elaiophylin], 0.414; that for `CC(=O)O[C@@]12CO[C@@H]1C[C@H](O)[C@@]1(C)C(=O)[C@H](O)C3=C(C)[C@@H](O)C[C@@](O)([C@@H](OC(=O)c4ccccc4)[C@H]21)C3(C)C` [10-Deacetylbaccatin-III], 1.07.
`C/C(=C\c1csc(C)n1)[C@@H]1C[C@@H]2O[C@]2(C)CCC[C@H](C)[C@H](O)[C@@H](C)C(=O)C(C)(C)[C@@H](O)CC(=O)O1` [Epothilone B, Patupilone]: the GFP- was 1.03.
`CC(=O)Nc1ccc(OC[C@](C)(O)C(=O)Nc2ccc([N+](=O)[O-])c(C(F)(F)F)c2)cc1` [Andarine] came in with a GFP- of 1.
With `O=c1cccc2n1C[C@@H]1CNC[C@H]2C1` [Cytisine], the GFP- turned out to be 0.919.
In turn, `CC[C@@H](C(N)=O)N1CCCC1=O` [Levetiracetam] registered a GFP- of 0.963.
For `CCC1(C)CC(=O)NC(=O)C1` [Bemegride], the GFP- was found to be 0.914.
In turn, `Cc1sc2c(c1C)C(c1ccc(Cl)cc1)=N[C@@H](CC(=O)OC(C)(C)C)c1nnc(C)n1-2` displayed a GFP- of 0.802 ± 0.12.
Turning to `CN1[C@@H]2CC[C@H]1CC(OC(=O)C1C=Nc3ccccc31)C2` (stereo partly specified) [Tropisetron], the GFP- was 1.13.
